The exact form of at least one protein or probe is not confirmed. No signal at the amounts used counts as a negative. Where a protein sequence is shown, tags need not be part of it.
Molecular target: T1, Ss-LrpB (UniProt Q7LX67)
T1 sequence (looked up, limits assumed): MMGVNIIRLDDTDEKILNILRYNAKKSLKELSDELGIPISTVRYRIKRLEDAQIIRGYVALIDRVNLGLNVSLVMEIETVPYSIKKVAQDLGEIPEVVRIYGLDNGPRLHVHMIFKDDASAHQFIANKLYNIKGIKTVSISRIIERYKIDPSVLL
Experiment: EMSA
Conditions: EMSA/footprinting in LrpB binding buffer (ref. 27), composition, pH and temperature not given, recombinant protein, label: 5'-32P, probe letters rebuilt from the primers and the genome

TACGCCACAAATACCGACACCAGAAATATCTAAAAAGATAGCAAAAATTCCAGGAGTTGAAGTAGTATATGAAACTACTGGAGATTATGATATTCTAGTAATAGTTAGAGGGACAAACATTACATCAATCAATAGGACAATAGATGAGATTAGAAGCATTCAAGGTGTTGTGGGAACAAATAGTACTATTATCCTTAGAACCTGGTTCTAAAATCGTACCACTTATTACTAAAAACTTTTTCTACACAAAACTAAGTTAGTATCTAACTGACCTTCAATGGTAAATCTAAAATGTCCTATCTGTGGTGGAGAAATAACTGTAGAAGACGATGCGTTACCAGGAGAACTTGTAGAACATGAATGCGGAGCTCAATTAGAAGTTGTAAAACAAAACGGCAAATTGTCACTTAGACTAGCAGAGCAAATAGGTGAGGATTGG (double strand) [Sso5317 (lysW) fragment]
binding result (none or only nonspecific): no binding

TCTGGGAATCTAATTCTTGAAGCAATTATAACACCTATAACTGCTATCGGAATAAACCATAGAAATACATCCCTATAGTCATATCTAGTTAGTAAATAGACTTCAATTGCAGGGCCTAGGATCAAACTGGTACTAAGGCTAGTTGAGTAAAGGGATAGTAGTCTCTCAACTGATTTCTTATCATTTGCTAAACTCGCTGCTGTTATTAGATTAGGCATTACTAAACCAAAAGCAATCCCAGCGAAGATTGAGATTATCCATATTGATATTACGTTAGACAGATAATAGAGTGGTAAGGAAAGTAAAATTATAATATTCGATATAACGAACGCCCTTTTTCTTAGCTTCGAATTAAGTTCAGGATTAATAAATGTTGTGGCAATGAAGTTGAATGTAAATAATAAGGCTGATAAAAGGCCTACCATAGAGTTAGATAGCTGAAGACTATATTTCGCTAAGAGTGGAACTGTTGTAGTAACCATGTTATTTGTAGCTCTAGCTGAGATCGTCATCAGTACAAGGATTATGGCTG (double strand) [Sso1890 fragment]
binding result (none or only nonspecific): no binding

TTGATGGCGTTAGTGTGACAATTGTGTTAAAGCCGGAATAGGAGAAAAAGGCCAAATTCGACGTTGTCAATACTCCTTGTATTCCATGGGGAAACAACGGTACGAAATTATGTACTTTTATCCCTACTATAATGGGGATTGTTAATGAGAAGAGTATTAGACTTGAAATGTTTATTATCACAAATATCGTATCGACTTCAGCAACTGTCCCTATCCCGAAATAGTCCAAAACCAGTAAGATTACGATGAGTATCACAGCTAAAGTGTAGTAAAGCGTTTTGGGTAGACCAAATAGTAGGAGATAGCCCGAAAAGCCTAGAGCAGTTGCAGCTCCGCCAATTACATATGATATTACCCTAAACCAACCCACTAGGAATCCGGACATTTCCCCTAAGGTCTTTAAGGTAAAACTGTAAACTCCTCCTTCAACGTCAGTGAAAATCGAGGATAATTCTGCACTATTTAATCCAATTGACATTGCGAAAATTGCAGT (double strand) [Sso1463 fragment]
binding result (none or only nonspecific): no binding

CAGTGTGAAGGCAATTGGAATAACTGCTGATGATCTCATAAAAATAATAGAAGAGGTGGTAAGGTGAGGCCATTATTCCTTTATGCTCCCAATTTAAAGAGGTATGAGAGTGAGTTTTTAGATTCTAGAAAAGGTTGGAAATCAATATCTGTTACGGGTACTTATTGTGCATTTAACTGTAAACATTGTGGTAGGCGAGTATTAGAATCAATGATTGACGGTTCTACTCAAGGTAAAATTGAGAAAGAAATTATGGAAGCAATTAGTAGAGGAGATGAGGGAATTATACTATCTGGTGGTTCTACATCGAGAGGAGATGTTCCGATATGGAGGTATTCTAATTTATTGAAGAGATATTCCGATAGACTTACAATAATAGCTCACACTGGTGTAGTTAAAAACGAAGAAATAGCTAGGAAATTTAAGGAAAGTGGTGTGAAAATCGCATTGTTAGATATGGTATCCGATAATGATGCAATTAAAGATATTTTAGGGCAACCATTTACCG (double strand) [Sso1114 fragment]
binding result (none or only nonspecific): no binding

AAGGCTGAAAAATATGACTTGCTTAACGTGATTTTGTTTTTAATAACAAATTTTGCTACAGGTGGAGTAAAATAAATCTCGGCTAGAATTTCACCCTTCTTATTCTTTATATATTCTATGCTACCTTTATTACCTTTTATGGTAGGTATATAACCGGATTCTATAATACTCAATAGAAACTCATAAAATTCCAATTCCTTTCTTAAGCTTGTAATCTTACTCTCAAGGAATTTTTTTAGTTCATCAGTGTTAACACTCATCACAAATATCTATATACATTAAACTATATATAACCTAAACTGCAATAGTTAGTTTAATGAAAGATAAAGTTAGAGTTGCCGTAGTTGGAGGTTCAGGATATACGGGCGGAGAATTACTAAGAATATTAGTTACACATCCGAAGACAGAAATATCAGTCATAACTTCTAGAGAATATGCGGGAAAACCA (double strand) [Sso0154 fragment]
binding result (none or only nonspecific): no binding

TTGCTCTTTAAAGTCTGACGAAGTACATTTTTCAGCTGATAATTAAAACCATTAGATTATATAGAATAATTTGTATAAAAGTTTGTTAATAAATTTTTAAATTTTTTTAAGGGTGATATATGACTCTGATGTTTAACGTTCGCCCATTTTACAACGTTAATCGTATAATTTAGATGTTACCGGAAACAAAGATAAAGGAGGTTCTGGAATCGATTTTGATACTATTATAACTACAGAGGGCTCATTATCTGTAATGTCATCCATGACCTTGTCTAATTTGAGCGGAATTGGAAAAATTATCATTATTTAATATCAGTACGATTATAAACTAGGTCTACTATAAAAATGAAACATGTTAATAGGGTATTACGGAAATAATTGACCACTTCTAAGATAAAATTTACAAAAGTTAAAATTAACTAAGCAAACAAGTTTCCTCTTCATCTTAATCTTATAGTTAAACCTTAGGGAAGGAAAACATTCACA (double strand) [Sso2133 fragment (Box6)]
binding result: binds

GACTTTATTGCCAGAAATGCAAATCTTGAAAGGATTAAGGCTTGCCACAACTATTACCCAGTCTTGTATAGTGGGATATCTAAAGAGATCTTTATAGAGAAAAATAGGATATTTAAGGAAAGAGGTATAGAGATCGGTGCGTTTATCTCTAATCCAAAGTTTAATCTCAGAACCACATTAGAGGTTTTAAGGTATGTAGAACCATTCGATTCTGCCAATTACTTGTTCAAATTCGTCGACAGAGTTTTAATAGGAGACCCCATTCCAGATTATGAAAGTTTAAGGCAAGTATCGGAAGTTTTCAAGTCTGATATTACGAAGATAAGAATTAAAGTATATGATGAAAGCGTGGGCAAAAGATTAGATAAAAAGTTTGCAGTGGAAAA (double strand) [Sso1272 fragment]
binding result: binds

TCCCTGGGAACTTAATTATTGCAATCATTCTCTTCTCACTCTAACGAGTATTTTATGAATTATCGGATTGTATAATCTTCCCTCATTGGCAATTTTTTCAATTAAATTCTTTGCATCCTCTTCATTATTGGCCTCAATTTTGAACTGGATGTACTTTCCTACTCTCGTTTCAATTATGTTGTTTGTGTATTTCTCAATTACATATTTTTGTATTGTTTCTCCTTCTGGATCTCTAACTGAGTCTTTATTTATTATTATCAATTCTACATAGTATTTCATAAAGGGGCCCTCATGAGGTAATTCTTTTTAGAAATTCCTCATACGAGGATTTTACTGTTTTTAAATCGTAACCCTTCCTATATAAATCCTTATCATAAATTCTGGAATTACCATCTCTAATTCTCATACTATCTAACGATATTTCATCTCCAATTACTAGTTTATCGCCC (double strand) [Sso6264 fragment]
binding result (none or only nonspecific): no binding

TTTTTCATCTCATTTTTATGTTACGCGTATATAGGTTTATTATTAATTGTTGATAATACCTATGTATTCATATTAGTTGGTTAAGGACATTTTTAGGACTTGCTGAAGGTTATTATGTGGGAAATAGTTATTTATACGTATTCGCTACTAAAATAGACAAGAATGTCATCCATATCAGCGGACACAGACGAATTATATAAGAAGATATCTGAGCTCAAAGAGAATATAGTTAGACTAAAGCAACTCAAGTTAGAACTTATTGAAAAGGTCAAAAAAATGAGAGAGAAAAGGAGGGAAAAAATAGCCAAAGTAAAAGAGTTGACGCAGCAAATTAACGTAGTAAGGCAAGAGTATAAAATGAAATTAGAGGAATTTAACCAGCTT (double strand) [Sso0974 fragment]
binding result (none or only nonspecific): no binding

TGTGAACTTGTTGAATTTTCCAGAAGAGTTAGAAGGATCACAAAGCTAAATTGAACATCTCAACATTAGTTGAAATAAAGGTAATGAGTTTGGACAACGATTTTGTTAATTGACGATAAACTATAAATAAAAGACTTGAAATAAAAAGAGAATTATTATTTGACAAAATGAAGACAAGTCTCGAATGAGAGTGTTTGGATCCTTTTATAAGGCCTAAAAAGTTATTTCTTCAACTTATCTTCTATATATTCTATAATTTCCGCTATATTCTGGGTTGATTCATCGTTATTGAAGGTCTTATTTAAATCACTACTCTTTATTATAATATGTCGTAATTTTTCATCGCAGTAGAAAAGTTCTATTTTTAAGTCCTTATAGATGTATTCATCTACTTTAATTATTCCCTCGTAGACATAACTCCTAACCTTAAATATGTTAGTTTTTGCCCTTAAGAAGTCTTCA (double strand) [Sso2142 fragment]
binding result (none or only nonspecific): no binding

AGTATGGTGGTTTTCCTTAGTGGTATTTTTATTCCTAACATTTCAATCAAGATATATACTTTTCAGTTCAAATTTAAAATTAAGTACCATGTAAGTATAGTCTACTTATACATTTCAGTATCAGTAATTATTATAATTACAGTTTTATGTATTTTTCACATATCACTAGAGTTCGATATTGCTAAATAAAAGATTCGTACTATATTATGGAGATTTTCACAGCAGAAAGTAATAAGCTCTGGCTTCCTTCACCTTAAAAGGTTAAGGTTTCAGTTTTAAACACATTATGAGAATGTGCGGACCCGGCGGGATTCGAACCCGCGACCACCGGCTTTCTTCCGAAAGTTAGGAGGCCGGC (double strand) [Ssot18 fragment]
binding result: binds
